According to the supplement of paper PMC3334620:
In all, about 33,000 sequences were measured (“E-score (-0.5 to 0.5)”: median about -0.016, highest 2% from about 0.3 on). This is one part of the list.

target: T1, Yer184c (UniProt P39961); assay: PBM E-score (8-mer binding enrichment) (E-score (-0.5 to 0.5)); higher = stronger / more preferred TF binding; conditions: protein concentration: 100 nM; construct: GST-full length
T1 sequence: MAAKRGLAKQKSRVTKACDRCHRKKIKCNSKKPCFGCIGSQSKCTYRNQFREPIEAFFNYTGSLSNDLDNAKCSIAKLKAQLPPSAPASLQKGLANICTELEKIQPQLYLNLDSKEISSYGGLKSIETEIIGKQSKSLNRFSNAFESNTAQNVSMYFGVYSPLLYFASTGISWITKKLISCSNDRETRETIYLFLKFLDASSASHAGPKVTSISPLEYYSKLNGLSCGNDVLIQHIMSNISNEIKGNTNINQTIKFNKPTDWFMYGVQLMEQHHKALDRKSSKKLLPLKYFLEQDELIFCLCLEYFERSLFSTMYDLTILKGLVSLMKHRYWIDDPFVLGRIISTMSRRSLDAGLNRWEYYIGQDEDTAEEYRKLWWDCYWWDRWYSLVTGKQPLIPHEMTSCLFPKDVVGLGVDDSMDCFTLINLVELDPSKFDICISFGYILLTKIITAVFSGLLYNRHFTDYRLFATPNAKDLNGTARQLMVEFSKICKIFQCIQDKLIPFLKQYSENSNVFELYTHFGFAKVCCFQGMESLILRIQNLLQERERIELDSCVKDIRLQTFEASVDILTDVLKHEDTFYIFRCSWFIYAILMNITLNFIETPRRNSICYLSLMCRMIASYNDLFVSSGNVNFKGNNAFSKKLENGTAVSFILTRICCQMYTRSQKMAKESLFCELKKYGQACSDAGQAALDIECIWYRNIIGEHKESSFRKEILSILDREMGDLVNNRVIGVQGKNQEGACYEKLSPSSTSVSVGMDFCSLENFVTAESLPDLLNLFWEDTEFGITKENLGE
Procedure, shortened: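 PURExpress in vitro transcription/translation supplied GST-tagged yeast transcription factors, either full-length or DNA-binding domain. Applied at about 100-200 nM to universal all-10-mer Agilent arrays double-stranded by primer extension, the bound protein was detected with fluorescent anti-GST. E-scores, modified Wilcoxon-Mann-Whitney statistics, were given by the Universal PBM Analysis Suite to ungapped eight-base words pooled with their reverse complements after masliner normalisation.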

Sequence	PBM E-score
GGAGATAA	0.146
ACGTAAAA	0.125
GCGACGAA	0.0717
CCTTTAAA	-0.012
AAGCAATG	0.0554
TAAGGCTA	-0.0917
AAGAGATT	0.107
CGCTCGCC	0.00476
AGTCTCCA	-0.178
CTCCGCGA	0.0959
GCTCAAGA	-0.177
CTGTATTC	0.13
GGTGTGTA	-0.226
CCGAATCC	0.322
CCGATGAG	0.0404
CCATTGCC	-0.0282
ACCATGAT	-0.154
GGGTAGAC	-0.181
CGGCCAAG	0.0915
CTAGTCAA	-0.126
TTGGCAAA	0.106
CTCTTGCA	-0.112
TAATGGCA	-0.0628
ACCTTGAC	-0.0709
ACATCCTC	-0.0455

Sequence	PBM E-score
ATCTCACC	0.147
ATTTAAAC	0.0959
CTCCTTAA	-0.0623
GGCTGGAC	-0.113
AGTCACTG	-0.142
ATATGTCG	0.106
ACGAACTC	0.155
TAACCTTA	-0.0841
AATATACA	0.154
GGTGGTGA	-0.179
CGTGTTCA	0.0708
ACGCTAAT	-0.00879
CAGGACGG	-0.134
ACAGTGCT	0.0435
ATCTCAAT	0.00748
CTTATATC	0.149
CCTAATCA	0.126
AGATCCCC	-0.22
AGGATAGA	0.0167
CTCTTAAA	0.196
AGTCTCGG	0.112
ATGGCATA	0.00654
AGCCCATG	-0.197
AGTCCCCC	-0.483
AGAAGAAT	-0.0953

Sequence	PBM E-score
CACTCACC	-0.119
AAGGCTCT	-0.175
ATGTCCCC	-0.156
ATTACTTC	0.0107
CCTTTGGA	-0.212
AAAGCGCC	0.0412
CGTTCCTA	0.0583
AGATAATA	0.0739
AAATGAAT	-0.0153
AGAGAAAT	-0.0135
AAACGTGG	-0.273
GAGGTGCA	-0.0348
CGACTATA	-0.0728
CTATCCAC	0.0314
AGCCCTAA	0.0169
ACACACGA	-0.0975
ACTGGATC	-0.132
ATACTGCA	0.132
CAGATCAG	0.0606
CGCCACTC	0.0215
AGGGGTGA	-0.397
CAAACGGG	-0.0368
CCGCAGCG	-0.0184
GAACCGTA	-0.052
GCGTAAAC	0.264

Sequence	PBM E-score
CTCGCTGA	-0.0846
ATAAAACG	0.196
ACTTTGGC	-0.0903
ACTATCGA	-0.203
GGCACAAC	0.0428
CAAAGGTA	-0.0249
TGTTCCAA	0.0502
CCTCACAC	-0.203
ACTACTGC	-0.153
CGAGCTCC	0.0493
GTTCCTAA	0.195
ACATTGAC	-0.0746
CCAACTCA	-0.00172
GCATGAGA	-0.166
CACATCTA	0.0649
GTACCCAA	-0.211
GACTAGTC	-0.0673
AGTATACC	0.0505
CAGAACCC	-0.0324
CTGCCCTC	-0.357
GCGACCAC	0.00486
AGAACCGA	0.095
AATCCGAA	0.0989
GCATTTCA	0.0231
AGGCGACA	-0.138

A portion taken from the entries so far, as a working copy:
Sequence	PBM E-score
CAAAGGTA	-0.0249
TGTTCCAA	0.0502
CCTCACAC	-0.203

Carrying on.

Sequence	PBM E-score
ATACATTA	0.162
GATATGGA	0.146
AGGTTCGG	0.173
ATCCGTGG	0.13
AAGCTGGC	-0.105
CAGGGAAA	0.0066
AATGTCCC	-0.162
AGACCGGC	0.128
ACGTTCGC	-0.16
TATGGACA	0.0399
CCATGAAC	0.102
AGAACGGC	0.176
ACTGGCTC	-0.156
AATCAACG	0.214
CAGGTGCG	-0.13
AGTCGTGC	-0.271
AGGTCCCC	-0.211
AGTTGCAC	-0.0844
ATGTTAGC	0.0216
TAGTTAGA	0.16
ACTCAATC	-0.00019
CCAAATCC	-0.0224
ACATTTCC	0.17
GCGAGGGA	-0.174
ACATGTTG	0.145

Sequence	PBM E-score
GATTCAGC	0.0121
CAATAATG	-0.0559
TGAAGAAA	0.217
GAAGACAA	0.0584
TCCTATAA	-0.102
GCCTAGAA	0.00564
CTATCCGA	0.119
CAGACTGG	-0.205
CCACATCC	-0.129
GGTTGTAC	0.157
CAAAAATA	0.288
ATGAACGC	0.0172
GTCGAAAC	-0.0402
ATAGCGTC	-0.147
GCCACGCC	-0.243
CACTTCGA	-0.0274
CTACAGGC	-0.236
TCTTCCAA	0.0697
TAGCCACA	0.0103
GACGAGGC	-0.177
AACACCTT	0.0552
AGTAGACT	-0.0389
GAATACTA	0.149
ATAGGTTA	-0.0713
GACGTTCC	-0.0502

Sequence	PBM E-score
TGGGGAAA	-0.0527
CGGTCCTA	-0.0474
ACATTGCT	-0.0573
AATTCTAA	0.0614
CTTGTTGA	0.0735
AAACATCG	-0.0791
CCTAAATC	0.057
CATAAAAA	0.252
GGATTCAA	-0.0823
CAGCATAA	0.0665
GCCCATCC	-0.224
AATCGGCT	0.349
AGTATTCG	0.0724
CAGGGCAG	-0.102
CAAAGTTC	0.0248
CTTATTAA	0.15
TACTAACA	0.0854
CGGCGGCC	0.0437
CATTGTGC	-0.124
CGTGCGGA	-0.0118
CAGGAGAA	0.0983
AATCCGTG	0.0809
GGTACACA	-0.06
CACAGATG	-0.0682
CTAGGTTC	-0.014

Sequence	PBM E-score
ACACCGCG	-0.0537
GAACCGGC	0.18
CCTTATCA	0.0526
CCTGTGAG	-0.173
ACATTCTC	-0.0031
ACCCAGAC	-0.0093
GCGTTACA	-0.0168
ATCTGTGG	-0.228
GCAGCAGA	0.0819
GTTTTCTA	0.207
ATAATCCG	0.23
GCCCTGTA	-0.139
AGTACTTC	0.147
GAAAAAGA	0.206
GCAAAAAA	0.229
ATTCCGGA	0.436
TATAATGA	0.219
CAGGAATC	-0.0432
AGAACCAG	-0.102
CGCACCAG	0.0914
GGTTCAAA	0.231
ATTAAGTG	0.107
CGTATCCC	-0.137
GCGCGGGA	0.0199
GCGCCACC	-0.26

Sequence	PBM E-score
ATTTCATC	0.127
CAGACGCC	-0.161
CCGCCCAA	-0.125
AGGCGAAG	-0.131
ATTTGCAG	0.0815
GCGTTCCA	0.0604
CAACGCTC	-0.182
CAGAGGAG	-0.212
CCTTGGCC	-0.324
GCATATTA	0.076
GCGTTTCC	0.0119
AGTCGTAG	-0.09
TACAGGAA	0.181
CTACCTTA	-0.122
ATGATTCG	0.0269
GAGTTCTA	-0.0729
AGCGTGAT	0.0161
GTACGTCA	-0.276
CCTTTCAC	-0.0144
ATTGGCCG	0.143
ACATTCCT	-0.139
AAGAACCG	0.223
CATCTCTA	-0.0291
GCGGTTCA	-0.0177
GCAACCTA	-0.123

Copied from the list:
CAGAGGAG – PBM E-score: -0.212
GCGGTTCA – PBM E-score: -0.0177
GCATATTA – PBM E-score: 0.076
GCGTTCCA – PBM E-score: 0.0604
ACATTCCT – PBM E-score: -0.139
GAGTTCTA – PBM E-score: -0.0729
ATGATTCG – PBM E-score: 0.0269

Further records:

Sequence	PBM E-score
GACCGCAA	0.0311
AGCCGAAC	0.279
CCCCCAAG	-0.226
CCAGCACG	-0.132
GCCAAAAA	0.234
ATAAACAC	0.0583
CGCCGATC	0.129
TGGGACAA	-0.139
ACGAACAG	0.044
AACTACAT	0.0324
CCTCCAGG	-0.37
ACTTCTAT	-0.0344
CACAAACC	-0.15
ATGCACGA	-0.192
CTCAGGAC	-0.0106
ACATGGAG	-0.287
GAGCTCCA	-0.133
ATAATTAA	0.323
AGCATCAC	-0.207
ACAAGTGT	-0.092
AGCAGGGC	-0.269
ACGATCTG	-0.225
GCACCGCC	-0.183
GCATGAAA	0.0975
CGCCCTGA	-0.0305

Sequence	PBM E-score
CTGGTATC	0.00658
AAGACATT	-0.147
GATCGGTA	0.283
CCTTGGAA	0.00859
GTGGCGGA	-0.15
AGGATACA	-0.0342
AAACTCTT	-0.111
CTAGTGCC	-0.019
GACAAGGA	-0.0111
AGAAATCC	0.0506
AGGGATTA	-0.104
AATCCGTC	0.177
GAACGGGA	0.109
ACCCAAGC	-0.186
CGAAGAAG	0.159
CCTGAGCA	0.0403
ACTACCAC	-0.14
ACTACCTG	-0.124
AGTCTCAA	-0.165
GAGTGGCA	-0.153
GTACACAC	-0.0358
CAGCCACG	-0.029
ACAAGGCA	-0.0983
TGACTAAA	0.0586
CTAAATAC	-0.0252

Sequence	PBM E-score
CTTGATGA	0.154
TGGGCCCA	-0.172
TAACCAAA	0.00703
AAAAGGCT	-0.059
CCGACATA	0.0406
ACTAGGTA	0.074
ATTGAGAA	0.147
ACCGTCGA	-0.142
GGCGTAAA	0.163
CGTCGAAG	-0.0753
ACCTGTCG	-0.119
CGTCCATC	0.0269
CGAAGATC	-0.0716
AGTGGTAA	-0.0307
ACCCGAAA	0.169
ACGAGGTC	-0.127
GGGTATTA	0.0826
CATAGAGG	-0.0335
GCGGGTAA	-0.0471
AGCATTAT	-0.0597
GGCCGTAC	0.145
CGTCATGA	-0.0317
ATACCGAG	0.117
CTCATTTC	0.0515
AATTAGGC	0.115

Part of the list above, in CSV form.
Sequence,PBM E-score
CGTCGAAG,-0.0753
ACCTGTCG,-0.119

Later entries:

Sequence	PBM E-score
CGTGAACA	0.141
ATATGTGC	-0.0304
ATTTGCCC	0.0315
ACTGGTAC	-0.00757
CCTAATTA	-0.0854
CCCCCATC	-0.296
GTCCTTAA	0.0174
AATCCGGC	0.3
TAGGTCAA	-0.0748
CGTAATAG	0.0193
ATAGTCTA	-0.134
TCCGTCCA	0.0919
CCACCTGC	-0.134
CAGTCATC	-0.248
CCTTTCTC	-0.109
CGTACCGA	0.122
ACAAACAA	0.156
CTGCATCC	-0.0447
ATATATTC	0.319
GTTTTGCA	0.134
AGTTTCTG	0.109
GAGCTTCA	0.0556
CGAACGAA	0.111
AGCTCTCA	-0.0398
GTTTAGTA	0.129

Sequence	PBM E-score
AAGCTCTG	-0.323
CTAAGCAA	-0.155
ACGAATTG	-0.0627
GATCGAAC	0.0679
CAAGTTTA	0.0245
GCGGTTAC	0.119
CCCAGTGC	-0.113
GTAGTGGA	0.177
ACCACTCG	0.161
CCCTCCTC	-0.294
AGTCTTTG	-0.0401
ATAGCAGC	-0.169
AAATAAGT	0.0237
ACCCTAGC	-0.109
ATACATAC	-0.0825
ACGGTTAG	-0.121
GCTGAGGA	-0.0891
TAACAGCA	0.0901
AATCCGAG	0.114
